Data reported in US20160046579A1, “THERAPEUTIC COMPOUNDS AND COMPOSITIONS” (AGIOS PHARMACEUTICALS, INC., priority 2013, published 2016).
The match of structure and compound is tentative.

By UniProt entry, the sequences of proteins in these tests, tags left out. Where a name states a change or a piece, a line headed by the entry shows the natural chain unless it says otherwise.
UniProt P30613, whole entry: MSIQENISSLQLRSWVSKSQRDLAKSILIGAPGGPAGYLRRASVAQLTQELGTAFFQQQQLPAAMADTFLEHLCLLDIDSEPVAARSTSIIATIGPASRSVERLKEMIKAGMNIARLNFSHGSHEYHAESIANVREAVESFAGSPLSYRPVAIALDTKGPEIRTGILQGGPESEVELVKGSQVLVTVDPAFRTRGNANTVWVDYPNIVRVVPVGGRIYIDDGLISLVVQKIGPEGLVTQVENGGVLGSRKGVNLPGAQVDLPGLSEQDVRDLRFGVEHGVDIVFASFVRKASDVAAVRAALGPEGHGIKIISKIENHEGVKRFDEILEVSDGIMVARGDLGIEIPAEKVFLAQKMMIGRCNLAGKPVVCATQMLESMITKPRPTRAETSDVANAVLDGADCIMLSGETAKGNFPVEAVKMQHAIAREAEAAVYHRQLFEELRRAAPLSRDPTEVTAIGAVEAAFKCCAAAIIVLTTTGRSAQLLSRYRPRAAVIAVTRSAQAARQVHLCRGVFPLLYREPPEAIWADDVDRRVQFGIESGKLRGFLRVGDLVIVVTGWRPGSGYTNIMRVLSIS
UniProt P30613, whole entry R510Q: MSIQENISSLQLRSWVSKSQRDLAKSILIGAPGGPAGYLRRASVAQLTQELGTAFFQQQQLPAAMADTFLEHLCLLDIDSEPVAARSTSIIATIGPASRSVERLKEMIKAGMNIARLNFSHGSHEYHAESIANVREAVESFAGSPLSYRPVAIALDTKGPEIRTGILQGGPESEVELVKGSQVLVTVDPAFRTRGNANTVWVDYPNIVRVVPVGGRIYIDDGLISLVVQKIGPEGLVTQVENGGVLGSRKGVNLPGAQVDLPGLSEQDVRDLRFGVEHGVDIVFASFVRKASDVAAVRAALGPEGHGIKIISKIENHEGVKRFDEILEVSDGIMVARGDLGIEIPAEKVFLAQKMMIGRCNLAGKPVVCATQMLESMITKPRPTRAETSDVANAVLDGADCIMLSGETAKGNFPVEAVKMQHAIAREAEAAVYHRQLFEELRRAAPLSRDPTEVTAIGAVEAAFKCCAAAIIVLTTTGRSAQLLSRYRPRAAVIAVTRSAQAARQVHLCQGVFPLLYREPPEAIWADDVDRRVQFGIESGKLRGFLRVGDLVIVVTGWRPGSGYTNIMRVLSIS
UniProt P30613, whole entry R532W: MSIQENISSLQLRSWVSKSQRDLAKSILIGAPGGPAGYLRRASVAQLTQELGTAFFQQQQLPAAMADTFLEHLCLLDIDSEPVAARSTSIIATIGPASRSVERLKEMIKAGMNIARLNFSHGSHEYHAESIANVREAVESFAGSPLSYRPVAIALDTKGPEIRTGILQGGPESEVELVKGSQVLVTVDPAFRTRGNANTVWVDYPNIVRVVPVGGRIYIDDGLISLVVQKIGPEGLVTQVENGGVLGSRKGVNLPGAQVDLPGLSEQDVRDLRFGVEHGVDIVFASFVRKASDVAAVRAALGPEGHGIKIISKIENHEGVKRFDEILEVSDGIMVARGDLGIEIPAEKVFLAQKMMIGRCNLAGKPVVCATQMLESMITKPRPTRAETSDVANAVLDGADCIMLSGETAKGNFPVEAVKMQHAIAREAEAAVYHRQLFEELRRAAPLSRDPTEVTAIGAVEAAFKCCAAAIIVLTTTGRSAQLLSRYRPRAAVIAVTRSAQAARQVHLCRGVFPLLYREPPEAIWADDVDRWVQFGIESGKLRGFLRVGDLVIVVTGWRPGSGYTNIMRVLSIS

Legend:
PKR R532W = PKR R532W (Homo sapiens, UniProt P30613, R532W); assay: PKR Mutant Assay, dose response (AC50), PKR R532W; details: read-out: PKR R532W AC50; PKR R532W mutant enzyme
Protocol: (§1) • PKR or PKR mutant enzyme solution was diluted in assay buffer. • 2 μL of test compound was added into wells first, and then 180 μL reaction mix was added. • Reactions mixture with test compound was assembled except for ADP, and plates were stored for 60 minutes at room temperature. • 20 uL ADP was added to start reaction at room temperature and reaction progress was measured as changes in absorbance at 340 nm wavelength at room temperature.
(§2) Test Compound Preparation: • Test compound stock was made at 100× concentration in 100% DMSO (10 mM) • 1 to 3 dilutions were made for 11 points (i.e. 50 μl of first concentration added to 100 μl 100% DMSO to yield 3.33 mM, 50 μl of this added to 100 μl DMSO to yield 1.11 mM, and so forth) • 1 to 100 dilution into assay (2 μl in 200 μl) yielded starting concentration of 100 μM, decreasing 3 fold for 11 points.

PKR R510Q = PKR R510Q (Homo sapiens, UniProt P30613, R510Q); assay: PKR Mutant Assay, dose response (AC50), PKR R510Q; details: read-out: PKR R510Q AC50; PKR R510Q mutant enzyme
Protocol: as §1, §2

wt PKR [1] = molecular target: T1, wt PKR (Homo sapiens, UniProt P30613); assay: PKR Mutant Assay, dose response (AC50), wild type PKR enzyme; details: read-out: PKR WT AC50
Protocol: as §1, §2

wt PKR [2] = molecular target: T1, wt PKR; assay: wt PKR cell based assay; details: read-out: PKR WT Cell Based AC50

| Structure (SMILES) | AC50 (PKR R532W) [nM] | AC50 (PKR R510Q) [nM] | AC50 (wt PKR [1]) [nM] | AC50 (wt PKR [2]) [nM] |
| --- | --- | --- | --- | --- |
| O=C(c1ccc(NS(=O)(=O)c2cccc3nccnc23)cc1)N1CCC(O)(c2ncc(Cl)s2)CC1 | 101 to 1000 | 1010 to 10000 | 101 to 1000 | – |
| O=C(c1ccc(NS(=O)(=O)c2cccc3c2OCC3)cc1)N1CCC(O)(c2ccccc2Cl)CC1 | 1010 to 10000 | > 10000 | 1010 to 10000 | – |
| O=C(c1ccc(NS(=O)(=O)c2cccc3cccnc23)cc1)N1CCC(O)(c2cccc(Cl)c2)CC1 | < 100 | 101 to 1000 | < 100 | < 100 |
